Patent US8445676B2, “Pyrrolotriazine kinase inhibitors” (Bristol-Myers Squibb Company, priority 2008, dated 2013)
Some results were stated once for a whole list of compounds, not compound by compound.

Sequences of proteins named here, by UniProt entry; tags and fusion partners are left off. A change or cut given only in a name is not applied to a line headed by its entry.
UniProt O60674: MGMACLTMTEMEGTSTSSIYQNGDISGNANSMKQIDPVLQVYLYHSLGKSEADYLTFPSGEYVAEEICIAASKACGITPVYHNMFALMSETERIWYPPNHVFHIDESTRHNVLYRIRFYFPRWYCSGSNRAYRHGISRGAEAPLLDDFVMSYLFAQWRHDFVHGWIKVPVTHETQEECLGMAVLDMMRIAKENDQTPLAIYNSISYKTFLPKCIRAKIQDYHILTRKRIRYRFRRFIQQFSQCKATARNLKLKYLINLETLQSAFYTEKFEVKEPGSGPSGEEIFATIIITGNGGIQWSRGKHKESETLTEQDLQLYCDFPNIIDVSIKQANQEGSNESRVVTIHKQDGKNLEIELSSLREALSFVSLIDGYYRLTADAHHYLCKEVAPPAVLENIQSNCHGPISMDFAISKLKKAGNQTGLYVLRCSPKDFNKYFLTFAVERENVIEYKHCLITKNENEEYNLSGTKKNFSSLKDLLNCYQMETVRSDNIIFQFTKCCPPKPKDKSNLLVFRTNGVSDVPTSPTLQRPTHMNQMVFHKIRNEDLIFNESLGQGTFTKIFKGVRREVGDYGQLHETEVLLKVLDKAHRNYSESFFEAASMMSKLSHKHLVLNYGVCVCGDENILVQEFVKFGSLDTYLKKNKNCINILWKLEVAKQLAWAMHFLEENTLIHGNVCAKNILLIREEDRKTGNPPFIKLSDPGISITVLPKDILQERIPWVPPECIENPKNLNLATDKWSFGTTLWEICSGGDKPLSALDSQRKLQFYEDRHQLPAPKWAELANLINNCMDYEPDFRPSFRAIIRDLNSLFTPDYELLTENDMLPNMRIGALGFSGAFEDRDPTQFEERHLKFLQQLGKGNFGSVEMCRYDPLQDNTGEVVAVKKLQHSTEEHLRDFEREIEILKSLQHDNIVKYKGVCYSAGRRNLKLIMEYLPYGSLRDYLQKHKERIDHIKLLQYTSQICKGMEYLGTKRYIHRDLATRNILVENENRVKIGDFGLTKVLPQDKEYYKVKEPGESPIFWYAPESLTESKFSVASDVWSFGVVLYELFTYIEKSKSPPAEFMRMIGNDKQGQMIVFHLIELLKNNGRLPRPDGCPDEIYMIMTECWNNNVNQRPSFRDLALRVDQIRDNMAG

What follows are compounds tested against JAK2 (Homo sapiens, UniProt O60674) (assay: JAK2 Tyrosine Kinase Assay). Conditions: list of named compounds.
Type: biochemical
Description: JAK2 Tyrosine Kinase Assay
The assays were performed in V-bottom 384-well plates. […] The reaction was initiated by the combination of JAK2 with substrates and test compounds. The reaction was incubated at room temperature for 60 min. and terminated by adding 45 μl of 35 mM EDTA to each sample. The reaction mixture was analyzed on the Caliper LabChip 3000 by electrophoretic separation of the fluorescent substrate and phosphorylated product. […] Compounds were dissolved at 10 mM in dimethylsulfoxide (DMSO) and evaluated at eleven concentrations, each in duplicate. IC50 values were derived by non-linear regression analysis
With `Cc1cc(Nc2nc(N3CCN(C(=O)C4(c5ccc(F)cc5)CCCC4)CC3)nn3cccc23)n[nH]1` [2-(4-((1-(4-fluorophenyl)cyclopentyl)carbonyl)-1-piperazinyl)-N-(5-methyl-1H-pyrazol-3-yl)pyrrolo[2,1-f][1,2,4]triazin-4-amine] the “selectivity for JAK2 activity versus JAK3 activity” value (“selectivity” below) was ≥ 15. With `Cc1ccc(C2(C(=O)N3CCN(c4nc(Nc5cc(C)[nH]n5)c5cccn5n4)CC3)CCCCC2)cc1` [2-(4-((1-(4-methylphenyl)cyclohexyl)carbonyl)-1-piperazinyl)-N-(5-methyl-1H-pyrazol-3-yl)pyrrolo[2,1-f][1,2,4]triazin-4-amine] the “selectivity” value was ≥ 15. In the case of `Cc1ccc(C2(C(=O)N3CCN(c4nc(Nc5cc(C)[nH]n5)c5cccn5n4)CC3)CCCC2)cc1` [2-(4-((1-(4-methylphenyl)cyclopentyl)carbonyl)-1-piperazinyl)-N-(5-methyl-1H-pyrazol-3-yl)pyrrolo[2,1-f][1,2,4]triazin-4-amine], the “selectivity” value is reported as ≥ 15. With `Cc1ccc(C2(C(=O)N3CCN(c4nc(Nc5cc(C)[nH]n5)c5cccn5n4)CC3)CC2)cc1` [2-(4-((1-(4-methylphenyl)cyclopropyl)carbonyl)-1-piperazinyl)-N-(5-methyl-1H-pyrazol-3-yl)pyrrolo[2,1-f][1,2,4]triazin-4-amine] the “selectivity” value was ≥ 15. With `Cc1cc(Nc2nc(N3CCN(C(=O)C4(C)CCCCC4)CC3)nn3cccc23)n[nH]1` [2-(4-((1-methylcyclohexyl)carbonyl)-1-piperazinyl)-N-(5-methyl-1H-pyrazol-3-yl)pyrrolo[2,1-f][1,2,4]triazin-4-amine] the “selectivity” value was ≥ 15. `Cc1cc(Nc2nc(N3CCN(C(=O)C4(C)CC4)CC3)nn3cccc23)n[nH]1` [2-(4-((1-methylcyclopropyl)carbonyl)-1-piperazinyl)-N-(5-methyl-1H-pyrazol-3-yl)pyrrolo[2,1-f][1,2,4]triazin-4-amine] was tested, and the “selectivity” value was ≥ 15. `Cc1cc(Nc2nc(N3CCN(C(=O)Cc4ccc(F)cc4F)CC3)nn3cccc23)n[nH]1` [2-(4-((2,4-difluorophenyl)acetyl)-1-piperazinyl)-N-(5-methyl-1H-pyrazol-3-yl)pyrrolo[2,1-f][1,2,4]triazin-4-amine] was tested, and the “selectivity” value was ≥ 15. `Cc1cc(Nc2nc(N3CCN(C(=O)Cc4c(Cl)cccc4Cl)CC3)nn3cccc23)n[nH]1` [2-(4-((2,6-dichlorophenyl)acetyl)-1-piperazinyl)-N-(5-methyl-1H-pyrazol-3-yl)pyrrolo[2,1-f][1,2,4]triazin-4-amine] was tested, and the “selectivity” value was ≥ 15. `Cc1cc(Nc2nc(N3CCN(C(=O)Cc4c(F)cccc4F)CC3)nn3cccc23)n[nH]1` [2-(4-((2,6-difluorophenyl)acetyl)-1-piperazinyl)-N-(5-methyl-1H-pyrazol-3-yl)pyrrolo[2,1-f][1,2,4]triazin-4-amine] was tested, and the “selectivity” value was ≥ 15. `Cc1cc(Nc2nc(N3CCN(C(=O)Cc4ccccc4Br)CC3)nn3cccc23)n[nH]1` [2-(4-((2-bromophenyl)acetyl)-1-piperazinyl)-N-(5-methyl-1H-pyrazol-3-yl)pyrrolo[2,1-f][1,2,4]triazin-4-amine] was tested, and the “selectivity” value was ≥ 15. For `Cc1cc(Nc2nc(N3CCN(C(=O)c4cccnc4Cl)CC3)nn3cccc23)n[nH]1` [2-(4-((2-chloro-3-pyridinyl)carbonyl)-1-piperazinyl)-N-(5-methyl-1H-pyrazol-3-yl)pyrrolo[2,1-f][1,2,4]triazin-4-amine], the “selectivity” value was ≥ 15. With `Cc1cc(Nc2nc(N3CCN(C(=O)Cc4ccccc4Cl)CC3)nn3cccc23)n[nH]1` [2-(4-((2-chlorophenyl)acetyl)-1-piperazinyl)-N-(5-methyl-1H-pyrazol-3-yl)pyrrolo[2,1-f][1,2,4]triazin-4-amine] the “selectivity” value was ≥ 15. With `CO[C@@H](C(=O)N1CCN(c2nc(Nc3cc(C)[nH]n3)c3cccn3n2)CC1)c1ccccc1` [2-(4-((2R)-2-methoxy-2-phenylacetyl)-1-piperazinyl)-N-(5-methyl-1H-pyrazol-3-yl)pyrrolo[2,1-f][1,2,4]triazin-4-amine] the “selectivity” value was ≥ 15. In the case of `Cc1cc(Nc2nc(N3CCN(C(=O)Cc4cccc(Cl)c4)CC3)nn3cccc23)n[nH]1` [2-(4-((3-chlorophenyl)acetyl)-1-piperazinyl)-N-(5-methyl-1H-pyrazol-3-yl)pyrrolo[2,1-f][1,2,4]triazin-4-amine], the “selectivity” value is reported as ≥ 15. In the case of `Cc1cc(Nc2nc(N3CCN(C(=O)Cc4cccc(F)c4)CC3)nn3cccc23)n[nH]1` [2-(4-((3-fluorophenyl)acetyl)-1-piperazinyl)-N-(5-methyl-1H-pyrazol-3-yl)pyrrolo[2,1-f][1,2,4]triazin-4-amine], the “selectivity” value is reported as ≥ 15. For `COc1cccc(CC(=O)N2CCN(c3nc(Nc4cc(C)[nH]n4)c4cccn4n3)CC2)c1` [2-(4-((3-methoxyphenyl)acetyl)-1-piperazinyl)-N-(5-methyl-1H-pyrazol-3-yl)pyrrolo[2,1-f][1,2,4]triazin-4-amine], the “selectivity” value was ≥ 15. With `Cc1cccc(CC(=O)N2CCN(c3nc(Nc4cc(C)[nH]n4)c4cccn4n3)CC2)c1` [2-(4-((3-methylphenyl)acetyl)-1-piperazinyl)-N-(5-methyl-1H-pyrazol-3-yl)pyrrolo[2,1-f][1,2,4]triazin-4-amine] the “selectivity” value was ≥ 15. In the case of `Cc1cc(Nc2nc(N3CCN(C(=O)C4(c5ccc(F)cc5)CCOCC4)CC3)nn3cccc23)n[nH]1` [2-(4-((4-(4-fluorophenyl)tetrahydro-2H-pyran-4-yl)carbonyl)-1-piperazinyl)-N-(5-methyl-1H-pyrazol-3-yl)pyrrolo[2,1-f][1,2,4]triazin-4-amine], the “selectivity” value is reported as ≥ 15. For `CCOc1cc(F)c(CC(=O)N2CCN(c3nc(Nc4cc(C)[nH]n4)c4cccn4n3)CC2)c(F)c1` [2-(4-((4-ethoxy-2,6-difluorophenyl)acetyl)-1-piperazinyl)-N-(5-methyl-1H-pyrazol-3-yl)pyrrolo[2,1-f][1,2,4]triazin-4-amine], the “selectivity” value was ≥ 15. With `Cc1cc(Nc2nc(N3CCN(C(=O)Cc4ccc(F)cc4C(F)(F)F)CC3)nn3cccc23)n[nH]1` [2-(4-((4-fluoro-2-(trifluoromethyl)phenyl)acetyl)-1-piperazinyl)-N-(5-methyl-1H-pyrazol-3-yl)pyrrolo[2,1-f][1,2,4]triazin-4-amine] the “selectivity” value was ≥ 15. With `Cc1cc(Nc2nc(N3CCN(C(=O)C(c4ccc(F)cc4)N4CCCCC4)CC3)nn3cccc23)n[nH]1` (stereo not shown) [2-(4-((4-fluorophenyl)(1-piperidinyl)acetyl)-1-piperazinyl)-N-(5-methyl-1H-pyrazol-3-yl)pyrrolo[2,1-f][1,2,4]triazin-4-amine] the “selectivity” value was ≥ 15. `COc1ccc(CC(=O)N2CCN(c3nc(Nc4cc(C)[nH]n4)c4cccn4n3)CC2)c(C(F)(F)F)c1` [2-(4-((4-methoxy-2-(trifluoromethyl)phenyl)acetyl)-1-piperazinyl)-N-(5-methyl-1H-pyrazol-3-yl)pyrrolo[2,1-f][1,2,4]triazin-4-amine] was tested, and the “selectivity” value was ≥ 15. For `COc1ccc(CC(=O)N2CCN(c3nc(Nc4cc(C)[nH]n4)c4cccn4n3)CC2)cc1` [2-(4-((4-methoxyphenyl)acetyl)-1-piperazinyl)-N-(5-methyl-1H-pyrazol-3-yl)pyrrolo[2,1-f][1,2,4]triazin-4-amine], the “selectivity” value was ≥ 15. In the case of `Cc1cc(Nc2nc(N3CCN(C(=O)C4Cc5ccccc54)CC3)nn3cccc23)n[nH]1` (stereo not shown) [2-(4-(bicyclo[4.2.0]octa-1,3,5-trien-7-ylcarbonyl)-1-piperazinyl)-N-(5-methyl-1H-pyrazol-3-yl)pyrrolo[2,1-f][1,2,4]triazin-4-amine], the “selectivity” value is reported as ≥ 15. In the case of `Cc1cc(Nc2nc(N3CCN(C(=O)CC4CCCCC4)CC3)nn3cccc23)n[nH]1` [2-(4-(cyclohexylacetyl)-1-piperazinyl)-N-(5-methyl-1H-pyrazol-3-yl)pyrrolo[2,1-f][1,2,4]triazin-4-amine], the “selectivity” value is reported as ≥ 15. In the case of `Cc1cc(Nc2nc(N3CCN(C(=O)C(C)C)CC3)nn3cccc23)n[nH]1` [2-(4-isobutyryl-1-piperazinyl)-N-(5-methyl-1H-pyrazol-3-yl)pyrrolo[2,1-f][1,2,4]triazin-4-amine], the “selectivity” value is reported as ≥ 15. With `CCC(C)(O)C(=O)N1CCN(c2nc(Nc3cc(C)[nH]n3)c3cccn3n2)CC1` (stereo not shown) [2-methyl-1-(4-(4-((5-methyl-1H-pyrazol-3-yl)amino)pyrrolo[2,1-f][1,2,4]triazin-2-yl)-1-piperazinyl)-1-oxo-2-butanol] the “selectivity” value was ≥ 15. For `Cc1cc(Nc2nc(N3CCN(C(=O)C(C)(C)O)CC3)nn3cccc23)n[nH]1` [2-methyl-1-(4-(4-((5-methyl-1H-pyrazol-3-yl)amino)pyrrolo[2,1-f][1,2,4]triazin-2-yl)-1-piperazinyl)-1-oxo-2-propanol], the “selectivity” value was ≥ 15. In the case of `Cc1cc(Nc2nc(N3CCN(C(=O)Cc4cccc(C#N)c4)CC3)nn3cccc23)n[nH]1` [3-(2-(4-(4-((5-methyl-1H-pyrazol-3-yl)amino)pyrrolo[2,1-f][1,2,4]triazin-2-yl)-1-piperazinyl)-2-oxoethyl)benzonitrile], the “selectivity” value is reported as ≥ 15. In the case of `Cc1cc(Nc2nc(N3CCN(C(=O)[C@H](O)c4ccccc4)CC3)nn3cccc23)n[nH]1` [(1R)-2-(4-(4-((5-methyl-1H-pyrazol-3-yl)amino)pyrrolo[2,1-f][1,2,4]triazin-2-yl)-1-piperazinyl)-2-oxo-1-phenylethanol], the “selectivity” value is reported as ≥ 15. In the case of `Cc1cc(Nc2nc(N3CCN(C(=O)[C@@H](O)c4ccccc4)CC3)nn3cccc23)n[nH]1` [(1S)-2-(4-(4-((5-methyl-1H-pyrazol-3-yl)amino)pyrrolo[2,1-f][1,2,4]triazin-2-yl)-1-piperazinyl)-2-oxo-1-phenylethanol], the “selectivity” value is reported as ≥ 15.
